Experimental data: the supplement of paper PMC12595434, “Development of retinoid nuclear receptor pathway antagonists through targeting aldehyde dehydrogenase 1A3” (iScience, 2025)
This is one part of the list. This is a noisy data set.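 Many melting curves are irregular; where none melted, Tm was taken as 64 °C.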

By UniProt entry, the sequences of proteins in these tests, tags left out. Where a name states a change or a piece, a line headed by the entry shows the natural chain unless it says otherwise.
UniProt P24863: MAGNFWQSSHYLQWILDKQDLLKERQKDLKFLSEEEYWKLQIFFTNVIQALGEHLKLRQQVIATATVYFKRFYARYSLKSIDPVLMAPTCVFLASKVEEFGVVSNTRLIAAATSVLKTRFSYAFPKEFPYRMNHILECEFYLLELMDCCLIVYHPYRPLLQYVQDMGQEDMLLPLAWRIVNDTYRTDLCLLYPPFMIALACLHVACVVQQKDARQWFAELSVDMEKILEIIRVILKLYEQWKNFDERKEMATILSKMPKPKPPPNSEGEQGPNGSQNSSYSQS
UniProt P20742, whole entry: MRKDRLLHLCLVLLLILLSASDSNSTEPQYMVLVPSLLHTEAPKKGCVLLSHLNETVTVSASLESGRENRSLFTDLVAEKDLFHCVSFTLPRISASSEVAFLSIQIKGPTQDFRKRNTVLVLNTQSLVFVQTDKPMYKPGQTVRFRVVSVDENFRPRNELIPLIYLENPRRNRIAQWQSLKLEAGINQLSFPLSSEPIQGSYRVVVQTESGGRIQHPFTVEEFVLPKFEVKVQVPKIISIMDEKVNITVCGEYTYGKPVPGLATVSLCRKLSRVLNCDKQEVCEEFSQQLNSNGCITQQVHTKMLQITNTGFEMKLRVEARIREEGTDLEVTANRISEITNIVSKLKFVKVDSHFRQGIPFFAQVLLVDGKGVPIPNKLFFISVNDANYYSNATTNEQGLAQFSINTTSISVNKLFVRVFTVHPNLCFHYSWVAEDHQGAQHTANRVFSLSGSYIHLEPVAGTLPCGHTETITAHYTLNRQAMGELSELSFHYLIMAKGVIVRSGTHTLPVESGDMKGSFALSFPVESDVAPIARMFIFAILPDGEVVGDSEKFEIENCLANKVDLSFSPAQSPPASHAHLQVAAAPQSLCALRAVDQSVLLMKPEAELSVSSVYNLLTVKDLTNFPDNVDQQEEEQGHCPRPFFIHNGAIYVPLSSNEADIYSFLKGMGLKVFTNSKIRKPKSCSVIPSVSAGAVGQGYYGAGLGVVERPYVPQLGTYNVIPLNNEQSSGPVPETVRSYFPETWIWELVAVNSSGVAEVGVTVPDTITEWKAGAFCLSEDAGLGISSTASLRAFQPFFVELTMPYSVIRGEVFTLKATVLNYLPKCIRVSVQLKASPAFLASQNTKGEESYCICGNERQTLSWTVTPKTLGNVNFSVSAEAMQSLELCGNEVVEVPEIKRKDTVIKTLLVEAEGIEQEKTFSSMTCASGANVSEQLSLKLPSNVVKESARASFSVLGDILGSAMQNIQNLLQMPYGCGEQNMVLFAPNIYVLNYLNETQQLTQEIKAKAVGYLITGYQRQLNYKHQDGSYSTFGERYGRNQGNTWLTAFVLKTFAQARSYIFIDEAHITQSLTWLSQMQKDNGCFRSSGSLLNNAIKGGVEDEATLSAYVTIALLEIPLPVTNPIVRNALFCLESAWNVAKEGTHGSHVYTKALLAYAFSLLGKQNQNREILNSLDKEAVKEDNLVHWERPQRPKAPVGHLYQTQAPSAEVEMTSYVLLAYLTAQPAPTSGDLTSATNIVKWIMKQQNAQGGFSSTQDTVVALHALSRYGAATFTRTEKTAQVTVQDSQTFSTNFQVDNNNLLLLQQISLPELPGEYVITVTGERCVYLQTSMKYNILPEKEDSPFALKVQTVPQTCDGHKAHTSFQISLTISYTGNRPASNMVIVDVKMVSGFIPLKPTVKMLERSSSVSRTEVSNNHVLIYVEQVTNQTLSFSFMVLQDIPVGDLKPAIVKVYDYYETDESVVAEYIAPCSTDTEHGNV
UniProt P33240: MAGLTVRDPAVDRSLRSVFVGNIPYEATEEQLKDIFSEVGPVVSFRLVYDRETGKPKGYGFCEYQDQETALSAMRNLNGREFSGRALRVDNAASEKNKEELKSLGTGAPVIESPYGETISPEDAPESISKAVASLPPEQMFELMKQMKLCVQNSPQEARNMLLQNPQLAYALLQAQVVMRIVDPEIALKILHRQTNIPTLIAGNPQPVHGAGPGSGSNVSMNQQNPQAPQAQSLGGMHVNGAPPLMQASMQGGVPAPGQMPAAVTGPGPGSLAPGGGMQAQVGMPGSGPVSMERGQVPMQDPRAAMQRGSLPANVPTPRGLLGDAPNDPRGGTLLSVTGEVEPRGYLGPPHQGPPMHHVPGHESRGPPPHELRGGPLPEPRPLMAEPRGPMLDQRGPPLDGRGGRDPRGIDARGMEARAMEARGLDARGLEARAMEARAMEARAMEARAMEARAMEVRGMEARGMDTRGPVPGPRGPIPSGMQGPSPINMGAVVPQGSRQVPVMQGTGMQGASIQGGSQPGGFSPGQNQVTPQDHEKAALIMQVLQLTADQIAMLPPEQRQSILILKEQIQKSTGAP
UniProt P25098: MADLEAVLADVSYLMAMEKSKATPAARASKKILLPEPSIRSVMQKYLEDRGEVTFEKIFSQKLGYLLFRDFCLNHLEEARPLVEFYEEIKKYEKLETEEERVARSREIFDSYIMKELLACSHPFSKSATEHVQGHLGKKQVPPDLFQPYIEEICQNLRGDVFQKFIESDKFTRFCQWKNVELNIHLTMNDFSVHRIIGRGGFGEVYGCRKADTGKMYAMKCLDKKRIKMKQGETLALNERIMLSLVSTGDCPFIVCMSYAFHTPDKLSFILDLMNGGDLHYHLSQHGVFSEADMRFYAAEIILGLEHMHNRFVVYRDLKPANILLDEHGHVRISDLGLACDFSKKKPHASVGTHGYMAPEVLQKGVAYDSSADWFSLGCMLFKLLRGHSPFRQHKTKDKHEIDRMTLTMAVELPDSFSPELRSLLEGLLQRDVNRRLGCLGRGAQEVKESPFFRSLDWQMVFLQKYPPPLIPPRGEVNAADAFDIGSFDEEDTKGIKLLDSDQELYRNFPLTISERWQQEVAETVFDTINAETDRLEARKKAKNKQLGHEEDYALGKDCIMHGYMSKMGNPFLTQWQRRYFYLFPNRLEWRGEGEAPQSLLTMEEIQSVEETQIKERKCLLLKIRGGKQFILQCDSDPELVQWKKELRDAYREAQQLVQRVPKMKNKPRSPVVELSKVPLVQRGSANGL
UniProt P33993, whole entry: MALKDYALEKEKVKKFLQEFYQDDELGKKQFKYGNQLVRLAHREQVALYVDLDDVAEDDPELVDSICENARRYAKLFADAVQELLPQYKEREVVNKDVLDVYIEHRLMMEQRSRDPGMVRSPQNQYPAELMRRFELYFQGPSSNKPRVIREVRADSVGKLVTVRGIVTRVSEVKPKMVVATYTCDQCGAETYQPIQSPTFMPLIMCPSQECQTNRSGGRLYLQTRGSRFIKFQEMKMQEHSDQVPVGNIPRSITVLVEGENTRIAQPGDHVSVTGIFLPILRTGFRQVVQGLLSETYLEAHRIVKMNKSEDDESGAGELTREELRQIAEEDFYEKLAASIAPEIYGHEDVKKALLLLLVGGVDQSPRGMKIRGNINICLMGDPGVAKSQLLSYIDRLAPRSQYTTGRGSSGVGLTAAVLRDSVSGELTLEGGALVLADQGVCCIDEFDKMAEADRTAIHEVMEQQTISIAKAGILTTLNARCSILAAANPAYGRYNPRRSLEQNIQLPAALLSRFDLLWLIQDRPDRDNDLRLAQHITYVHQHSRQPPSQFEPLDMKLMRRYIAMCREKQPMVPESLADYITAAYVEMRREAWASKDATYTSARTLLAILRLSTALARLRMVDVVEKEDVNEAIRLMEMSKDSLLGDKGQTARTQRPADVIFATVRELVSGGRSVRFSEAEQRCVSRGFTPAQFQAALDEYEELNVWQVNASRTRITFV
UniProt P35250, whole entry: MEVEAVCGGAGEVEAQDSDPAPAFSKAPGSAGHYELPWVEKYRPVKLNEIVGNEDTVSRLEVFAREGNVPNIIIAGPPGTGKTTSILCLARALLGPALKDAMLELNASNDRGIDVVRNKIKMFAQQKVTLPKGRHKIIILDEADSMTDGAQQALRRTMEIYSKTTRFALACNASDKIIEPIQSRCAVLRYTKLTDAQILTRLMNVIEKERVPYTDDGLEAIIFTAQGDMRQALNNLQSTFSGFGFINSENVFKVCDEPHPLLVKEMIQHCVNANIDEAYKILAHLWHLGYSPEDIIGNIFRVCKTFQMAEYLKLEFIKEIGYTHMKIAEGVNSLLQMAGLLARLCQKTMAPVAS
UniProt P30740: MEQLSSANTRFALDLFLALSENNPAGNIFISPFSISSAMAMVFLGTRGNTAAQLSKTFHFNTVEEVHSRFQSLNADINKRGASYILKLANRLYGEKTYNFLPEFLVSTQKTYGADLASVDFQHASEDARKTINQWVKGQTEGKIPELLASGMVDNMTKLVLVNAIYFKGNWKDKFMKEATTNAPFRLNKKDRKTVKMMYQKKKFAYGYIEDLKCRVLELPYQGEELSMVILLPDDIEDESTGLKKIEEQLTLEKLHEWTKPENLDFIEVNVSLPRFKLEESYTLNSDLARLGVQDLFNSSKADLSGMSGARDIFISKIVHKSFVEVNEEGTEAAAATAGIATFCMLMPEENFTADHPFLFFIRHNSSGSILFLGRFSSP
UniProt P30566: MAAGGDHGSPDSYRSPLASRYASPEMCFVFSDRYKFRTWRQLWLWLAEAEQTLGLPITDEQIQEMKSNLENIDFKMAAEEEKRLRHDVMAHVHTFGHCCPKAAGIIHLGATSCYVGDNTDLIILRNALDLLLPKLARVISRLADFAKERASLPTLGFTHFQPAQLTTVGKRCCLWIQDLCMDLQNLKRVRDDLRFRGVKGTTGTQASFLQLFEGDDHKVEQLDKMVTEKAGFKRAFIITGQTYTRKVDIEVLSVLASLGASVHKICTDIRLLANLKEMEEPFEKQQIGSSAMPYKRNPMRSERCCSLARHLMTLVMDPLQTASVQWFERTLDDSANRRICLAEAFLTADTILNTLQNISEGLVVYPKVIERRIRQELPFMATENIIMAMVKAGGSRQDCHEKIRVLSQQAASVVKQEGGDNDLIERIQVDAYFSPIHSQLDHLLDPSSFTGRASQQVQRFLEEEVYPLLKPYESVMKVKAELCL
UniProt P28676: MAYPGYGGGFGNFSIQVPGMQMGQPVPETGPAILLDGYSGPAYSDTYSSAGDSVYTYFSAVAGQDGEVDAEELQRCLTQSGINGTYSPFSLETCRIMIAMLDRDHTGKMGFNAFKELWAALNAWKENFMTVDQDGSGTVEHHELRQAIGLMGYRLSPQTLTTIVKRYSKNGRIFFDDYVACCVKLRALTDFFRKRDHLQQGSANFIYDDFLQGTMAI
UniProt P23528, whole entry: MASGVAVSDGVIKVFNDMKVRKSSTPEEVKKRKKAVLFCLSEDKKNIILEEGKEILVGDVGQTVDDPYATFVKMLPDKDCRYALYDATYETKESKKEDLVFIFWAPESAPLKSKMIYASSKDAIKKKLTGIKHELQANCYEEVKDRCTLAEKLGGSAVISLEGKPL
UniProt P30519: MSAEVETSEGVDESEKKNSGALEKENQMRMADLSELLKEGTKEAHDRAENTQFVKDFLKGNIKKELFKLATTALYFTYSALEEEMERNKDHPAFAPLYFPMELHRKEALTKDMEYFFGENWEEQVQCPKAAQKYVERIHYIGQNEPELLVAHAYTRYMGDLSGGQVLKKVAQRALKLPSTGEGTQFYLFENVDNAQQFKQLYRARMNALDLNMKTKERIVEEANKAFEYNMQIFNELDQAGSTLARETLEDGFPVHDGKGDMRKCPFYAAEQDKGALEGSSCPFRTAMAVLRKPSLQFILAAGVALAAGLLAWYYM
UniProt P36969, whole entry: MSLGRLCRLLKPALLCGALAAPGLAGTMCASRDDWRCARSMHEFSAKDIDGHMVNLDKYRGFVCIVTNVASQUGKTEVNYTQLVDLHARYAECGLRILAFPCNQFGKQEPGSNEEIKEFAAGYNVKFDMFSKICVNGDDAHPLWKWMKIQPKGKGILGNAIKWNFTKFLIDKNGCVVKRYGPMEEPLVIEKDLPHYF
UniProt P20674, whole entry: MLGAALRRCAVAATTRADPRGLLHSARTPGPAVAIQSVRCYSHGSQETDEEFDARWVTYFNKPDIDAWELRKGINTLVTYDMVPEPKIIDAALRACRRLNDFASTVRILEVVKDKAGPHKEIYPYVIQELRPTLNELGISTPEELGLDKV
UniProt P31948, whole entry, looked up: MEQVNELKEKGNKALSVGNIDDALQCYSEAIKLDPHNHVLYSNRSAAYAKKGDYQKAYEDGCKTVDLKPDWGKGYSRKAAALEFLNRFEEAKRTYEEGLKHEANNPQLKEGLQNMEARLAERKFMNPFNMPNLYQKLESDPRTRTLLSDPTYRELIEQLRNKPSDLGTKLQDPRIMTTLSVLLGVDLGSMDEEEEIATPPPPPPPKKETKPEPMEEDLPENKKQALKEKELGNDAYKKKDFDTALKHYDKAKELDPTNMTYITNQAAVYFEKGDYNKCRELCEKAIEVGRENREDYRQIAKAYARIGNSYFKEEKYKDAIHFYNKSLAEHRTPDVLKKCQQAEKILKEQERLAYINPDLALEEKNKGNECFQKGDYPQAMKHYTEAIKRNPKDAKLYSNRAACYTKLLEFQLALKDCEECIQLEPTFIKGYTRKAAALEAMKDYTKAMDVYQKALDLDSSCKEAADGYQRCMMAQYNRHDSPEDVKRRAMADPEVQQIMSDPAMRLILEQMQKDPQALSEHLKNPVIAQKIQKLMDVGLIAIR

Compound: CCc1cnccc1C(=O)Nc1cc2c(cc1F)NC(=O)CC2
Test: melting temperature shift (DMSO Tm minus MBE1-treated Tm) in cellular thermal proteome profiling; higher = less thermal stabilization by MBE1 (negative = stabilized by MBE1)
Details: A375

Target | melting temperature shift (MBE1 concentration: 100 nM) | melting temperature shift (MBE1 concentration: 1 uM)
GNA11 (UniProt P29992) | -0.455 °C | 0.00611 °C
UniProt P24863 | -0.731 °C | 
RAB5A (UniProt P20339) | -0.366 °C | 0.331 °C
INPP5B (UniProt P32019) | 0.055 °C | -0.107 °C
ATP5C1 (UniProt P36542) | -0.958 °C | -0.853 °C
PSMA2 (UniProt P25787) |  | -3.06 °C
AXL (UniProt P30530) | 0.629 °C | 0.342 °C
COMT (UniProt P21964) | 0.818 °C | 1.22 °C
LAP3 (UniProt P28838) |  | -3.11 °C
UniProt P20742 |  | -3.99 °C
UniProt P35749 | -0.208 °C | 0.287 °C
POLR2A (UniProt P24928) | 0.653 °C | -0.238 °C
EIF4B (UniProt P23588) | -1.94 °C | -2.44 °C
ITGA3 (UniProt P26006) |  | -2.94 °C
VDAC1 (UniProt P21796) |  | -0.583 °C
UniProt P21675 | -0.0256 °C | 
U2AF2 (UniProt P26368) | 1.3 °C | 0.47 °C
DDT (UniProt P30046) |  | -2.5 °C
PRDX3 (UniProt P30048) | -0.238 °C | -0.256 °C
AHCY (UniProt P23526) | -0.157 °C | -0.0435 °C
HNRNPH3 (UniProt P31942) | -0.0192 °C | -0.128 °C
UniProt P32456 | -0.531 °C | 
UniProt P35125 | -1.25 °C | 
UniProt P26378 | -1.31 °C | 
CTH (UniProt P32929) |  | 0 °C

Target | melting temperature shift (MBE1 concentration: 100 nM) | melting temperature shift (MBE1 concentration: 1 uM)
UniProt P21589 |  | -2.79 °C
M6PR (UniProt P20645) | -3.25 °C | -2.78 °C
CDC27 (UniProt P30260) | -0.749 °C | 0.916 °C
DNAJB1 (UniProt P25685) | 0.275 °C | -0.0672 °C
GART (UniProt P22102) | 1.09 °C | 0.727 °C
UniProt P35226 | -0.325 °C | -0.772 °C
BMPR1A (UniProt P36894) | -1.16 °C | -0.104 °C
CSTF2 (UniProt P33240) | -1.06 °C | -0.0805 °C
UniProt P20592 |  | -0.365 °C
SPR (UniProt P35270) | -0.248 °C | 0.418 °C
PAICS (UniProt P22234) |  | -1.11 °C
UniProt P25098 | 0.469 °C | 0.623 °C
NUP214 (UniProt P35658) | -0.899 °C | -0.899 °C
UniProt P23470 | 1.18 °C | -0.25 °C
MCM7 (UniProt P33993) | 0.837 °C | 0.0183 °C
MYH10 (UniProt P35580) | 0.666 °C | 0.33 °C
RFC2 (UniProt P35250) | 0.867 °C | 0.269 °C
CMPK1 (UniProt P30085) | -0.305 °C | 0.342 °C
CANX (UniProt P27824) | -1.07 °C | 0.0604 °C
ELF1 (UniProt P32519) | -0.41 °C | -1.1 °C
MPST (UniProt P25325) | -0.0423 °C | -0.325 °C
TPP2 (UniProt P29144) | -1.04 °C | -0.116 °C
HSPA4 (UniProt P34932) | -0.0366 °C | 0.287 °C
SERPINB1 (UniProt P30740) | -0.262 °C | 0.237 °C
PYCR1 (UniProt P32322) | -1.66 °C | 0.311 °C

Complete entries from above:
GART (UniProt P22102) in the list: melting temperature shift (MBE1 concentration: 100 nM): 1.09 °C; melting temperature shift (MBE1 concentration: 1 uM): 0.727 °C
GNA11 (UniProt P29992) in the list: melting temperature shift (MBE1 concentration: 100 nM): -0.455 °C; melting temperature shift (MBE1 concentration: 1 uM): 0.00611 °C
ELF1 (UniProt P32519) in the list: melting temperature shift (MBE1 concentration: 100 nM): -0.41 °C; melting temperature shift (MBE1 concentration: 1 uM): -1.1 °C
EIF4B (UniProt P23588) in the list: melting temperature shift (MBE1 concentration: 100 nM): -1.94 °C; melting temperature shift (MBE1 concentration: 1 uM): -2.44 °C

Next results.

Target | melting temperature shift (MBE1 concentration: 100 nM) | melting temperature shift (MBE1 concentration: 1 uM)
UniProt P22676 | -0.0738 °C | -0.872 °C
UniProt P23378 | -1.65 °C | -1.13 °C
PRKAR1B (UniProt P31321) | 0.812 °C | 0.482 °C
STX2 (UniProt P32856) | -0.295 °C | -0.0738 °C
ADSL (UniProt P30566) | -0.592 °C | 0.105 °C
PSMA5 (UniProt P28066) | -1.22 °C | -2.45 °C
UniProt P28676 | -0.495 °C | 0.0305 °C
CFL1 (UniProt P23528) | -1.35 °C | -0.154 °C
ARRB2 (UniProt P32121) | 0.159 °C | 0.0244 °C
HMOX2 (UniProt P30519) | 0.189 °C | 0.0366 °C
RPS12 (UniProt P25398) | -0.721 °C | 0.0366 °C
GCSH (UniProt P23434) | -3.6 °C | 1.37 °C
UniProt P24844 | -1.04 °C | 0.322 °C
PML (UniProt P29590) | 0.259 °C | -0.171 °C
GTF2E2 (UniProt P29084) | 0.273 °C | -0.263 °C
UniProt P35908 | -0.127 °C | 0.66 °C
UniProt P35052 | -6.63 °C | -2.49 °C
CLIP1 (UniProt P30622) | -1.24 °C | -0.59 °C
ATP2B4 (UniProt P23634) | -1.29 °C | 0.885 °C
GPX4 (UniProt P36969) | -1.15 °C | -0.159 °C
CBL (UniProt P22681) | -0.396 °C | 0.154 °C
COX5A (UniProt P20674) | -2.89 °C | -4.47 °C
RPL22 (UniProt P35268) | -0.775 °C | -0.244 °C
STIP1 (UniProt P31948) | -0.696 °C | -1.08 °C
